In the supplement of paper PMC11006884:
The list shows a part of the results, in another mix than the full data.

Amino acid sequences for entries named in this document (tags omitted). A change or cut given only in a name is not applied to a line headed by its entry.
UniProt P78527, whole entry, looked up: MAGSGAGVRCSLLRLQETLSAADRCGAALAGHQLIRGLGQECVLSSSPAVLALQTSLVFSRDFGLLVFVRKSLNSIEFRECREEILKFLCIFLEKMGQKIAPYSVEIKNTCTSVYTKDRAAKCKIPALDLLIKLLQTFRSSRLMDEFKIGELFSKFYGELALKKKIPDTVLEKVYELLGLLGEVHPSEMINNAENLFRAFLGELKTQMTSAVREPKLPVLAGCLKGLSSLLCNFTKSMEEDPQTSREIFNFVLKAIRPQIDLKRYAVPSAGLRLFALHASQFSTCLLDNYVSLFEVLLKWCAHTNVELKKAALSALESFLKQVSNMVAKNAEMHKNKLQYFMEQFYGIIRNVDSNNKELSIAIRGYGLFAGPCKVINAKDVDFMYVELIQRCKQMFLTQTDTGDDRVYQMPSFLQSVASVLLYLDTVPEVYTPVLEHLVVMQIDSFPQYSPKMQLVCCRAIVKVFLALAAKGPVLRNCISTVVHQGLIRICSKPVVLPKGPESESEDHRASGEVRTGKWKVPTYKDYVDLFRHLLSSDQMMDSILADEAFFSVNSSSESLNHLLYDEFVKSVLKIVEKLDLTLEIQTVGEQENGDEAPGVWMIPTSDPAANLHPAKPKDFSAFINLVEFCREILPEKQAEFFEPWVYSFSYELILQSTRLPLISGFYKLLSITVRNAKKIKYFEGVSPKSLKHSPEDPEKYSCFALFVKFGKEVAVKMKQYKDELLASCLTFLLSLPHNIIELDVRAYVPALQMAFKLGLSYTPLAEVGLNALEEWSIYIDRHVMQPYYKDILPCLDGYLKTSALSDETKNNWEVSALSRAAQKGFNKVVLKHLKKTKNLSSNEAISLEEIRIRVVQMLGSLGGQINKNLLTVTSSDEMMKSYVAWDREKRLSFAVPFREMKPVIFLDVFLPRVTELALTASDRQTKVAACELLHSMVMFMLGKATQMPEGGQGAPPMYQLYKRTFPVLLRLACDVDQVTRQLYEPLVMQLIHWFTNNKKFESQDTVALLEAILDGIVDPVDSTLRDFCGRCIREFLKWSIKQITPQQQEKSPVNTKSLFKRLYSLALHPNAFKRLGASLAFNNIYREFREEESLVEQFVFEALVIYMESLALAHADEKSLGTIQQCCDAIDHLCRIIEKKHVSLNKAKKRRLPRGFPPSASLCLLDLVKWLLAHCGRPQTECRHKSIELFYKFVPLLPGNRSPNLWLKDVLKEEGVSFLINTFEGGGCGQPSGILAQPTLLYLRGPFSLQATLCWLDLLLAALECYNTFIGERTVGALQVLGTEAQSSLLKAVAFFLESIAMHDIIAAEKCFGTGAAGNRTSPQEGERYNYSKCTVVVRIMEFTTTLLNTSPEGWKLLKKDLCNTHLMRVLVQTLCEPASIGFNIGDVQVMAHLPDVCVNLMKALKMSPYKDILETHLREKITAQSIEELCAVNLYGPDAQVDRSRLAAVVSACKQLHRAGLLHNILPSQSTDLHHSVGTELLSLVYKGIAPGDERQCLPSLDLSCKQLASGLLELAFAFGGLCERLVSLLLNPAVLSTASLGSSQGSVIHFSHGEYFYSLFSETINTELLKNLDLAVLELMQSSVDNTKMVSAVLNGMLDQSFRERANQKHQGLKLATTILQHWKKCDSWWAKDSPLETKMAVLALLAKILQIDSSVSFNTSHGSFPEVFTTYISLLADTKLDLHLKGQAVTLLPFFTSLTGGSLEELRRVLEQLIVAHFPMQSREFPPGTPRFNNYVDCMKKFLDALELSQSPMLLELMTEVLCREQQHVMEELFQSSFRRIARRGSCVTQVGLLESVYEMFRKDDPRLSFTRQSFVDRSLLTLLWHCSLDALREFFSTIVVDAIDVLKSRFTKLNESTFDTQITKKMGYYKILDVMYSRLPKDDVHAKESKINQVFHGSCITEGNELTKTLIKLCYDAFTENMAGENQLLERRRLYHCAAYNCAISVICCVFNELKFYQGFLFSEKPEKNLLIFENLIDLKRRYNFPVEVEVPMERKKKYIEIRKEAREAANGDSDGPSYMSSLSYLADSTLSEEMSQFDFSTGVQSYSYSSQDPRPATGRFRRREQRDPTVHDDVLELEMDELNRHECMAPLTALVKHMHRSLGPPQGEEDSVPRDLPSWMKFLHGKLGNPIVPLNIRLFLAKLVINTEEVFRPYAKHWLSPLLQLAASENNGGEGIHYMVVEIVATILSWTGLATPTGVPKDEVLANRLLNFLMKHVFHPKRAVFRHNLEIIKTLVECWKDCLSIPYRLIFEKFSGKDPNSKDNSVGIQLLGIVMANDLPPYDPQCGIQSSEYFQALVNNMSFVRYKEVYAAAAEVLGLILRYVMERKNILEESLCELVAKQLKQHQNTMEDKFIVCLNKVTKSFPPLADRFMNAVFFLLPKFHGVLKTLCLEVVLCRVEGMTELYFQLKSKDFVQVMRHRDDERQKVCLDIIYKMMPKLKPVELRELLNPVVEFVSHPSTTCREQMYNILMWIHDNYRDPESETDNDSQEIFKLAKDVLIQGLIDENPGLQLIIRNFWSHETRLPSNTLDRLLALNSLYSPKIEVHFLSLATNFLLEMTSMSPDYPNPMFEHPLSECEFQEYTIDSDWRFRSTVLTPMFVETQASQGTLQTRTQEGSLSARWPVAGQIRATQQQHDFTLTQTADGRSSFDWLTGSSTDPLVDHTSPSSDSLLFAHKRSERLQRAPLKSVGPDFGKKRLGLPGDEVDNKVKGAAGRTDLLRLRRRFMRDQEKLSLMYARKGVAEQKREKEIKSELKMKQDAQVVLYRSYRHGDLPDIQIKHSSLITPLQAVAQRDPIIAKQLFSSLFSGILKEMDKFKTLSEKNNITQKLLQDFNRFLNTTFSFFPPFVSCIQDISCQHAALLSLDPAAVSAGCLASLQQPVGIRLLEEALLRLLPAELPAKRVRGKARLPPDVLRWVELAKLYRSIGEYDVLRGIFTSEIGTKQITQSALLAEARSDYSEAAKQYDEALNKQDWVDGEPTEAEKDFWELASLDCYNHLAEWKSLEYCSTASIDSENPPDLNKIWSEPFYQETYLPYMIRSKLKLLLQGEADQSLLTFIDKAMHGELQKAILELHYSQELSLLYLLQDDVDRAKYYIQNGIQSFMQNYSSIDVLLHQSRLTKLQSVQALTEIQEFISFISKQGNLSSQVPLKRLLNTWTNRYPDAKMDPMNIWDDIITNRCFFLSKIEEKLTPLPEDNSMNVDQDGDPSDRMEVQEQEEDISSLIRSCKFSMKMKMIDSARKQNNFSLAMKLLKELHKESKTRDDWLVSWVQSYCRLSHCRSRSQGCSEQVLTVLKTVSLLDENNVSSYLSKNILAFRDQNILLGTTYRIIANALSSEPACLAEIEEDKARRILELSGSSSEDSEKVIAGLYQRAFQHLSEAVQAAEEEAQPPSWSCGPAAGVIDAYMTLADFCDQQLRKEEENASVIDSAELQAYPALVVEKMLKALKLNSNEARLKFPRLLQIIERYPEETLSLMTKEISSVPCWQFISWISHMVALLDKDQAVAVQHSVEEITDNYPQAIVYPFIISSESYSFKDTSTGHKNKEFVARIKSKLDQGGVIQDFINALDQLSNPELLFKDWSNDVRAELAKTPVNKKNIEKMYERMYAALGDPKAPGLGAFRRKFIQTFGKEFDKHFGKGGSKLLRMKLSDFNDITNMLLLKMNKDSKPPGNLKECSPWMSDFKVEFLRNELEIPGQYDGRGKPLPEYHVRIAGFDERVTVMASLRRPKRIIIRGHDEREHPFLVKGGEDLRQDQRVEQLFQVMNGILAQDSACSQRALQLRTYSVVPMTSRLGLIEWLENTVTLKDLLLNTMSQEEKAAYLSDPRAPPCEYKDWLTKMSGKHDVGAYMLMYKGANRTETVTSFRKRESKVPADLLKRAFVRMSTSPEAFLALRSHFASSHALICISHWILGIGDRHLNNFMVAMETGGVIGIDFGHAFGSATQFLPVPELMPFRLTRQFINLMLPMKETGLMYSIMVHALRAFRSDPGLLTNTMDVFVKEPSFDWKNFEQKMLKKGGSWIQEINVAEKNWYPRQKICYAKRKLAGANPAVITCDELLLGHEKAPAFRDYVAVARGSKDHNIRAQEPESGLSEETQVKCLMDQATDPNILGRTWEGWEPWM
UniProt Q01844: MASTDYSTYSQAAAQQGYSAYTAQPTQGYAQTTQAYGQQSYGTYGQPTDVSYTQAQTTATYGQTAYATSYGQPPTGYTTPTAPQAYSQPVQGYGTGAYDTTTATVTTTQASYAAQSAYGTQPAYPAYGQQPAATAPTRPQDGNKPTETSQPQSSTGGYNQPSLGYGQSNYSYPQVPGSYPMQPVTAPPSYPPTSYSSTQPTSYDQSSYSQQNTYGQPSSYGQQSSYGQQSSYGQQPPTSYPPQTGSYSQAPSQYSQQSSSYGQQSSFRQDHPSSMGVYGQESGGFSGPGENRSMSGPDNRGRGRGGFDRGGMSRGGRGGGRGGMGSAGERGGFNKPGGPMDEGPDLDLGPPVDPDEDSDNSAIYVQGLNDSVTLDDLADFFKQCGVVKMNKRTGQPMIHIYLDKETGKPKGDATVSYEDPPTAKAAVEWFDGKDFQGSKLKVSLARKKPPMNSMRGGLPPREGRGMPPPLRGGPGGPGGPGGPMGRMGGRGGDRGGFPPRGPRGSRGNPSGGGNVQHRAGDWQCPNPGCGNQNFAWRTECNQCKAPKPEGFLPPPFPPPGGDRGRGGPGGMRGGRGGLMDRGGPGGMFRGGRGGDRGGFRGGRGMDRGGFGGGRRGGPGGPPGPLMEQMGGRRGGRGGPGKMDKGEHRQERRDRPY
UniProt P62995: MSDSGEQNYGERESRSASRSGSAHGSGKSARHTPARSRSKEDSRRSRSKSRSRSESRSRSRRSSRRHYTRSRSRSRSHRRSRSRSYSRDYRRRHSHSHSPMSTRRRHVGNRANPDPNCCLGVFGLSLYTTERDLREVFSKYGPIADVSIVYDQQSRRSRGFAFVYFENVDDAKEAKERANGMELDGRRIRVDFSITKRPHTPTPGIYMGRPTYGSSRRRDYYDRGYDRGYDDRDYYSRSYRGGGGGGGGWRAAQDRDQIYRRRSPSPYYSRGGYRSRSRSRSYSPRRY
UniProt Q01581: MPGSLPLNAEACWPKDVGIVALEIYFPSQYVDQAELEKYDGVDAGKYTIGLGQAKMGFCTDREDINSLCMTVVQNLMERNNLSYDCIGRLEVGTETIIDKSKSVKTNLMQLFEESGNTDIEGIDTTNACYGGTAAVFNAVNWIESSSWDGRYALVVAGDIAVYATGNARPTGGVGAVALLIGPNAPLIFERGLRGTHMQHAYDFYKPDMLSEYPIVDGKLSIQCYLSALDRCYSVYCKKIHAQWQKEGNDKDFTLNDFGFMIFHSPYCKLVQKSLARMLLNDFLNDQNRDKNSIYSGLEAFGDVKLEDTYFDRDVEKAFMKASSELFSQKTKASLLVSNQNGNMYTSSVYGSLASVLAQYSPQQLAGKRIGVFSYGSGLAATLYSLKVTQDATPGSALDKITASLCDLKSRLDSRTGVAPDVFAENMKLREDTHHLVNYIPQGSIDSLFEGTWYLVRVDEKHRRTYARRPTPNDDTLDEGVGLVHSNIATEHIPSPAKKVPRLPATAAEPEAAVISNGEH
UniProt P62318, whole entry: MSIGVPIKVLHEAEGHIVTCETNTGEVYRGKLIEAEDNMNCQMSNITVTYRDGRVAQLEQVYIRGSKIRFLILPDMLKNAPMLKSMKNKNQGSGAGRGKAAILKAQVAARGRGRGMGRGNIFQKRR
UniProt P62937, whole entry, looked up: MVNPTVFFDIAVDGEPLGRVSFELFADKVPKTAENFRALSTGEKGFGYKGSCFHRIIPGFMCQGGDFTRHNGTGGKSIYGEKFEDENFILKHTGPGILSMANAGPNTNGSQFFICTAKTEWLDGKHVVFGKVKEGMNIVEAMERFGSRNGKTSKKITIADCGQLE
UniProt Q02040: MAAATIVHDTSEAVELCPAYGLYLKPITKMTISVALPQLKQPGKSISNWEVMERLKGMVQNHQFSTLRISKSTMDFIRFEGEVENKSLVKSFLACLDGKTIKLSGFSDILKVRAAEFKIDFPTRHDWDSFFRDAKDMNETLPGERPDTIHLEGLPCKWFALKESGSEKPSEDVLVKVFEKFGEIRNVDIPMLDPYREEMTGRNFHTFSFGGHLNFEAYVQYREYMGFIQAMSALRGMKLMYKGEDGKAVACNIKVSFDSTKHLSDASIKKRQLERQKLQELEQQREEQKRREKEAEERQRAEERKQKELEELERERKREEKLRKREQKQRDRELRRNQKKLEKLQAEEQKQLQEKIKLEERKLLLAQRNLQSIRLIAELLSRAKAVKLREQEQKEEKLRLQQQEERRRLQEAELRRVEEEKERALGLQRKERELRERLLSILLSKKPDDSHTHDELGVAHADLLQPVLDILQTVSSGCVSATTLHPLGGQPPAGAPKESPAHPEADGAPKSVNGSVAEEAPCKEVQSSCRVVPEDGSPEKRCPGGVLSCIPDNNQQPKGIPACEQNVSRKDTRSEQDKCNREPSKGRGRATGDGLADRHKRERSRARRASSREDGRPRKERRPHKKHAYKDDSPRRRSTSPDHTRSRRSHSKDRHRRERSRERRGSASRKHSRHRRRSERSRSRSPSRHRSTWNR

What follows are targets tested with COC(=O)C#Cc1ccccc1 [methyl 3-phenylpropiolate] (assay: log2 ratio of iodoacetamide-alkyne labeling of the cysteine site, DMSO over compound (competition); higher = stronger covalent engagement of the cysteine by the compound, active = 1 or more). Settings: 500 µM; treatment time 1 h; system: HEK293T cell lysate.
Summary of the method: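 After 1 h at ambient temperature with vehicle or electrophile (500 µM), HEK293T lysate (2 mg/mL) was labelled for 1 h with iodoacetamide alkyne and clicked to sCIP-TMT reagents. Pooled samples were trypsin-digested overnight at 37 °C, streptavidin-enriched, acid-eluted and analysed by Orbitrap Eclipse LC-MS/MS with FAIMS, then quantified in FragPipe over three replicates with duplicate channels. A cysteine's log2 competition ratio is its mean control-channel over mean compound-channel reporter intensity. Cysteines quantified in only one replicate were not included.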
FABP5 C127 (UniProt Q01469) was tested, and the “log2 ratio of iodoacetamide-alkyne labeling” value (shortened to “log2 ratio”) was inactive: -0.0938. For UniProt P78527_C3347, the “log2 ratio” value was inactive: 0.495. With ATP2C1 C162 (UniProt P98194) the “log2 ratio” value was inactive: 0.0772. FABP5 C120 (UniProt Q01469) was tested, and the “log2 ratio” value was inactive: -0.108. UniProt P62829_C28 was tested, and the “log2 ratio” value was inactive: 0.232. With CCT2 C535 (UniProt P78371) the “log2 ratio” value was inactive: 0.0576. With UniProt P78527_C1312 the “log2 ratio” value was inactive: 0.0987. With EWSR1 C529 (UniProt Q01844) the “log2 ratio” value was inactive: -0.0982. For UniProt P62995_C119, the “log2 ratio” value was inactive: 0.019. In the case of UniProt P63167_C24, the “log2 ratio” value is reported as inactive: 0.134. MPP1 C242 (UniProt Q00013) was tested, and the “log2 ratio” value was inactive: 0.479. For GTF2I C80 (UniProt P78347), the “log2 ratio” value was inactive: 0.0358. In the case of CCT2 C289 (UniProt P78371), the “log2 ratio” value is reported as inactive: 0.0805. For UniProt Q00341_C636, the “log2 ratio” value was inactive: 0.127. With EEF1A1 C363 (UniProt P68104) the “log2 ratio” value was inactive: 0.255. For HMGCS1 C86 (UniProt Q01581), the “log2 ratio” value was inactive: 0.0742. UniProt P68363_C376 was tested, and the “log2 ratio” value was inactive: 0.446. FOXK1 C254 (UniProt P85037) was tested, and the “log2 ratio” value was active: 1.18. UniProt P62318_C20 was tested, and the “log2 ratio” value was inactive: 0.0377. In the case of RPS21 C17 (UniProt P63220), the “log2 ratio” value is reported as inactive: 0.625. In the case of UniProt P78527_C3420, the “log2 ratio” value is reported as inactive: 0.785. For MRPS34 C93 (UniProt P82930), the “log2 ratio” value was inactive: 0.136. For UniProt P62266_C90, the “log2 ratio” value was inactive: 0.324. For SPTBN1 C1284 (UniProt Q01082), the “log2 ratio” value was inactive: -0.0598. HNRNPU C562 (UniProt Q00839) was tested, and the “log2 ratio” value was inactive: 0.691. In the case of CNBP C140 (UniProt P62633), the “log2 ratio” value is reported as inactive: 0.134. SPTBN1 C604 (UniProt Q01082) was tested, and the “log2 ratio” value was inactive: 0.364. With PPIA C52 (UniProt P62937) the “log2 ratio” value was inactive: 0.0298. In the case of UniProt P78527_C1432, the “log2 ratio” value is reported as inactive: 0.288. For UniProt Q02040_C542, the “log2 ratio” value was inactive: 0.763. For UniProt P62995_C118, the “log2 ratio” value was inactive: -0.0473. UniProt P68363_C347 was tested, and the “log2 ratio” value was inactive: 0.563. TPM4 C247 (UniProt P67936) was tested, and the “log2 ratio” value was inactive: 0.127. With PFKP C179 (UniProt Q01813) the “log2 ratio” value was inactive: 0.179. For CNBP C54 (UniProt P62633), the “log2 ratio” value was inactive: -0.0171. PFKP C641 (UniProt Q01813) was tested, and the “log2 ratio” value was inactive: 0.259. For AP2B1 C918 (UniProt P63010), the “log2 ratio” value was inactive: 0.386.
